Experimental findings from PMC7819943, “Rice protein-binding microarrays: a tool to detect cis-acting elements near promoter regions in rice” are described below.

This is one part of the list.

The target in the assay is T1, OsSMF1 (Oryza sativa, UniProt Q6ZLB0 1-436).
T1 sequence: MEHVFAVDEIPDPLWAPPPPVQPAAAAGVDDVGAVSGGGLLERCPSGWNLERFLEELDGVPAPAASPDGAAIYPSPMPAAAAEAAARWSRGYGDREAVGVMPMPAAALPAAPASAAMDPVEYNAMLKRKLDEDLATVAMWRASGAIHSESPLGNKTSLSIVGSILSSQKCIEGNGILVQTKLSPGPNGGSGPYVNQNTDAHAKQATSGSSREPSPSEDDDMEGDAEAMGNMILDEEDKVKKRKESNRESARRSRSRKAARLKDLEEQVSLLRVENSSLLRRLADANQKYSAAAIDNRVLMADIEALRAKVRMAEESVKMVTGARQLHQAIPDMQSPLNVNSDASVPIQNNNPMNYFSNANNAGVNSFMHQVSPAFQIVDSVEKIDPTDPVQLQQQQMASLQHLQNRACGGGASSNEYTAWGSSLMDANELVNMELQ
The experiment in a line: protein-binding microarray (RPBM); PBS, 2% BSA, 51.3 ng/ul salmon testes DNA, 50 uM zinc acetate, 200 nM TF, 25 C, 1 h; high values mean tight binding. The conditions noted are these: protein: recombinant; tags: N-terminal polyhistidine and DsRed monomer fusion (pET32a); chain copies: 2; label: CyDye5-dUTP incorporated in the synthesized complementary strand; 3' TTTTT single-stranded linker to array surface; dsDNA, one strand shown. The procedure, abridged:
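Transcription factors were each fused at the N-terminus to a polyhistidine tag plus DsRed and expressed in E. coli BL21-CodonPlus before Ni–NTA purification. Binding to a double-stranded custom Agilent array was carried out with 200 nM protein at 25 °C for 1 h in PBS, 2% BSA, salmon testes DNA and 50 µM zinc acetate. The binding signal is per-feature fluorescence intensity, in arbitrary units, on an Axon 4000B scanner.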
For “TTCTACACGACTGCACATAAACTCCCTTTTAGGGACAATTCGGAGTCACCTAGTGCAG”, the binding signal is 19400 fluorescence intensity (a.u.).

For the sequence “CAAGTTCTTGTCAAAATAGACAGAATTATGGGATTTGAGCCGGAGTCACCTAGTGCAG”, the binding signal is 4220 fluorescence intensity (a.u.).

In the case of “ACCACGAACGAAGATCAATCGTCATTAATTATAAGGTGAGCGGAGTCACCTAGTGCAG”, the binding signal is 24300 fluorescence intensity (a.u.).

For “TCGCTTTAACGCTTTCCTGAATCAGCACACTCCTACTTGCCGGAGTCACCTAGTGCAG”, the binding signal was 4300 fluorescence intensity (a.u.).

As to “ATGAAACAAACACTTAATTTTCACCTGACAGGTAATTAACCGGAGTCACCTAGTGCAG”, the binding signal is 3990 fluorescence intensity (a.u.).

Turning to “AACGTCTCCACCAAGCTTTGTCGATCACCTCCATGCTTTCCGGAGTCACCTAGTGCAG”, the binding signal was 3300 fluorescence intensity (a.u.).

Take “ACTGCACGCCGCATGCCACCGACACCGCACGTAGAAGCTTCGGAGTCACCTAGTGCAG”: the binding signal is 3580 fluorescence intensity (a.u.).

As to “CAGACATGACATAGCATAAATTGCACATGATCGGACACTACGGAGTCACCTAGTGCAG”, the binding signal is 3290 fluorescence intensity (a.u.).

On to “GTGAGTGGTGGTGGTAGTAGTAACTGTATTTGTGCTAGTACGGAGTCACCTAGTGCAG”, for which the binding signal was 3450 fluorescence intensity (a.u.).

Regarding “GGCGCGCAGTGGGACCCACGTGTCGGTCTCATACTCACCACGGAGTCACCTAGTGCAG”, the binding signal is 13300 fluorescence intensity (a.u.).

Take “CGCCGCCACTGTCGCCGGCTTGCCGCTGCCGTCGTCACCGCGGAGTCACCTAGTGCAG”: the binding signal was 5480 fluorescence intensity (a.u.).

In the case of “CCAATGAACATGCATGCCACTCAATGCATGCAGTGCAGTACGGAGTCACCTAGTGCAG”, the binding signal was 3230 fluorescence intensity (a.u.).

Consider “CGTCGCGCTCCCGCCGCTCCGCGTCCGCGTCCGCGTCGGCCGGAGTCACCTAGTGCAG”, for which the binding signal was 7570 fluorescence intensity (a.u.).

With “GAGACCCGAGTCAAGAGATATCGCCGTTTTACTAACGGTACGGAGTCACCTAGTGCAG”, the binding signal is 3390 fluorescence intensity (a.u.).

Turning to “TTGAGTCAGTAGTGTTGACAACGGTCAAGGTGCCACGTCACGGAGTCACCTAGTGCAG”, the binding signal is 26100 fluorescence intensity (a.u.).

With “GGGTTGACTGCGCGCGCATGTCGACGTTCGGCCGCCGATCCGGAGTCACCTAGTGCAG”, the binding signal was 15700 fluorescence intensity (a.u.).

“GGTTGGATGGTTGGATTTGATGTGGATTTGAATTGTTATGCGGAGTCACCTAGTGCAG”: the binding signal is 4290 fluorescence intensity (a.u.).

For “GTGGAGCCCCAACCCAACTACGCCGCCGCCACCTCATCCCCGGAGTCACCTAGTGCAG”, the binding signal is 6820 fluorescence intensity (a.u.).

Take “ATTCAGTGCAGCAGCTGCAGGCCAAGCAGGCAGCACAGCACGGAGTCACCTAGTGCAG”: the binding signal was 3610 fluorescence intensity (a.u.).

As for “ACGCTCGGCTGGGTGCCGGCTGGGAGTGACGCAGACGCGGCGGAGTCACCTAGTGCAG”, the binding signal is 3420 fluorescence intensity (a.u.).

In the case of “TTAACTCTTTGTTCGATTTGAGCTTAGTCACTTGATTGCACGGAGTCACCTAGTGCAG”, the binding signal was 4990 fluorescence intensity (a.u.).

As to “TGACTCGAACCCATCCACGGCAACGAAACCGAGCCCAACCCGGAGTCACCTAGTGCAG”, the binding signal is 3210 fluorescence intensity (a.u.).

“GTGTGCCGCCGCCGCTGACTCCGGAGGGAGAGGACGAGCTCGGAGTCACCTAGTGCAG”: the binding signal was 3320 fluorescence intensity (a.u.).

Take “TGATCAAATTTAGTCGTACATGAGTCGGACAATTGAGCTGCGGAGTCACCTAGTGCAG”: the binding signal was 3860 fluorescence intensity (a.u.).

As to “CCATTGTAGACCATGCAAATGTTAATGGAGCCAATTGGTTCGGAGTCACCTAGTGCAG”, the binding signal was 3180 fluorescence intensity (a.u.).

Consider “GAGAGGAGGAGGAGGAGCACAGGGCACATGCGGATGCGGCCGGAGTCACCTAGTGCAG”, for which the binding signal was 3700 fluorescence intensity (a.u.).

Regarding “AAACAAAGTGGCACAGATAAAATGGAACATAGAAGTGGCACGGAGTCACCTAGTGCAG”, the binding signal was 40700 fluorescence intensity (a.u.).

Turning to “TCGTAAGTAGGGATGCACATGGGTCGGGTTAACCCAGCTACGGAGTCACCTAGTGCAG”, the binding signal was 4110 fluorescence intensity (a.u.).

Consider “GACGACGACCGTGACTATGGAGGCAGTGGTGACGTCGGCGCGGAGTCACCTAGTGCAG”, for which the binding signal was 12800 fluorescence intensity (a.u.).

As for “CAGAAGCGTCTACATACAATAGGATTGGGGCCTGCAAATCCGGAGTCACCTAGTGCAG”, the binding signal was 55500 fluorescence intensity (a.u.).

“GTTCGAAAGCATCACCGAAGCTAGCTTACTCCTGCCGCCACGGAGTCACCTAGTGCAG”: the binding signal was 21800 fluorescence intensity (a.u.).

Regarding “AAATAAATAGTACTATCACGAATTCACGATGCATCACCGACGGAGTCACCTAGTGCAG”, the binding signal is 3370 fluorescence intensity (a.u.).

For the sequence “CGGGCGGGGCGGGGCGGGTTCGCTCGTCGGATGTGTGGATCGGAGTCACCTAGTGCAG”, the binding signal was 6500 fluorescence intensity (a.u.).

With “ATATATATATATATATATATATATATATATGTGTGTGTGTCGGAGTCACCTAGTGCAG”, the binding signal was 3350 fluorescence intensity (a.u.).

Consider “TGACTGCCAGCAAGTGTCACGAGTCATTGGCAATGATCTTCGGAGTCACCTAGTGCAG”, for which the binding signal was 3640 fluorescence intensity (a.u.).

As to “AGGGGTGCGTGTGACATATCATCAATCAATAACCAGCCTACGGAGTCACCTAGTGCAG”, the binding signal is 3450 fluorescence intensity (a.u.).

Take “TCCTCCCGCCTCTTCGACTTGCCACGGCGGTCCCGGTCCCCGGAGTCACCTAGTGCAG”: the binding signal was 4900 fluorescence intensity (a.u.).

Consider “CAACCCAAGCCAAGCCACCTCAGCCTCGCAGCGGCGCCCCCGGAGTCACCTAGTGCAG”, for which the binding signal is 8640 fluorescence intensity (a.u.).

Consider “GACGACGACAACGCCACGACCTCCTCCTCCTCCTCCTCCTCGGAGTCACCTAGTGCAG”, for which the binding signal is 3930 fluorescence intensity (a.u.).

For “AAAATCATTTCCCAAACCCATTAGCCAAACACTGCCTAGGCGGAGTCACCTAGTGCAG”, the binding signal was 21000 fluorescence intensity (a.u.).

Take “CCTCGTCTGACAGGTAGTCCCATCACGTGGGCCCCACCTCCGGAGTCACCTAGTGCAG”: the binding signal is 4370 fluorescence intensity (a.u.).

Turning to “CGATCTGGGAGCACACGCCGCGCCTCGTGTCGCTGAATGCCGGAGTCACCTAGTGCAG”, the binding signal is 3330 fluorescence intensity (a.u.).
